Test results taken from the supplement of paper PMC12067093, “Discovery and optimisation of a covalent ligand for TRIM25 and its application to targeted protein ubiquitination” (Chemical Science, 2025).
This is one part of the list.

Compound: Cc1cc(ccc1-c1ccccc1)C(=O)N1CCCN(CC1)C(=O)CCl [compound 10]
Assay: probe-labelled cysteine peptide fold change vs DMSO (competition) (log2 fold change); higher = less target engagement (more negative = stronger competition)
Conditions: THP-1, incubation time: 4 h
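Note: competitive profiling in live THP-1 cells: cysteine peptides tagged with an iodoacetamide desthiobiotin (IA-DTB) probe, intensity after compound treatment relative to DMSO-treated cells.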

Target	probe-labelled cysteine peptide fold change (10 µM)	probe-labelled cysteine peptide fold change (50 µM)
PSMF1_Q92530_17_AGLEVLFASAAPAITCR (UniProt Q92530)	-0.0548	-0.159
PSMD13_Q9UNM6_49_KLWHQLTLQVLDFVQDPCFAQGDGLIK (UniProt Q9UNM6)	-0.314	0.0276
PSME4_Q14997_1267_EWESSCFVEK (UniProt Q14997)	-0.154	-0.057
PSME4_Q14997_798_LQHCGDGK (UniProt Q14997)	0.19	0.198
PSMA5_P28066_165_GPQLFHMDPSGTFVQCDAR (UniProt P28066)	0.0144	0.0728
PUM2_Q8TB72_983_ALLIDEVCCQNDGPHSALYTMMK (UniProt Q8TB72)	-0.176	-0.303
PSMC3IP_Q9P2W1_107_VQSLQQSCR (UniProt Q9P2W1)	0.238	0.229
PSMA6_P60900_115_YGYEIPVDMLCKR (UniProt P60900)	-0.269	-0.721
PTPN12_Q05209_235_YQEHEDVPICIHCSAGCGR (UniProt Q05209)	0.255	0.000567
PTPN12_Q05209_343_SCLVEGDAK (UniProt Q05209)	-0.107	-0.0347
PSMB10_P40306_17_GGFSFENCQR (UniProt P40306)	-0.213	-0.383
PTK2B_Q14289_395_SHLSESCSIESDIYAEIPDETLR (UniProt Q14289)	-0.213	-0.461
PTK2B_Q14289_310_CLPLEEGQAVLQLGIEGAPQALSIK (UniProt Q14289)	0.223	-0.0202
PTGS1_P23219_158_DCPTPMGTK (UniProt P23219)	-0.218	0.261
PSMD5_Q16401_412_GISSQPFPELHCAALK (UniProt Q16401)	-0.00286	-0.0414
PTPN1_P18031_32_SGSWAAIYQDIRHEASDFPCR (UniProt P18031)	-0.0724	-0.0258
PSME1_Q06323_101_KKGEDEDKGPPCGPVNCNEK (UniProt Q06323)	-0.428	-1.54
PSMD11_O00231_257_YMLLCK (UniProt O00231)	0.248	0.241
PSMD2_Q13200_459_NECDPALALLSDYVLHNSNTMR (UniProt Q13200)	0.171	0.155
PTPN7_P35236_62_SLGAVEPICSVNTPR (UniProt P35236)	-0.192	-0.402

Given field by field: part of the list above.
PSMA6_P60900_115_YGYEIPVDMLCKR (UniProt P60900)
  probe-labelled cysteine peptide fold change (10 µM) = -0.269; probe-labelled cysteine peptide fold change (50 µM) = -0.721
PTK2B_Q14289_310_CLPLEEGQAVLQLGIEGAPQALSIK (UniProt Q14289)
  probe-labelled cysteine peptide fold change (10 µM) = 0.223; probe-labelled cysteine peptide fold change (50 µM) = -0.0202

Later entries.

Target	probe-labelled cysteine peptide fold change (10 µM)	probe-labelled cysteine peptide fold change (50 µM)
PTGES3_Q15185_75_SILCCLR (UniProt Q15185)	0.00638	-0.0974
PUS10_Q3MIT2_21_HVAQLLLNTGTCPR (UniProt Q3MIT2)	0.0888	-0.105
PTPN9_P43378_338_YGDVPCLDQTR (UniProt P43378)	-0.239	-0.197
PSMD1_Q99460_898_VLTMPETCR (UniProt Q99460)	-0.0254	0.0271
PSMD2_Q13200_616_VQQLLHICSEHFDSK (UniProt Q13200)	0.306	0.321
PSME4_Q14997_718_QGYTLSCNLLHHLLR (UniProt Q14997)	0.366	0.173
PSME2_Q9UL46_91_CGFLPGNEK (UniProt Q9UL46)	-0.3	-0.207
PTPN6_P29350_453_QESLPHAGPIIVHCSAGIGR (UniProt P29350)	0.347	0.269
PTCD3_Q96EY7_139_DIAEPHIPCLMPEYFEPQIK (UniProt Q96EY7)	-0.274	-0.604
PSMB8_P28062_160_LLSNMMCQYR (UniProt P28062)	0.0795	-0.168
PTPN12_Q05209_724_CDHPAGGIHYEMCIECPPTFSDK (UniProt Q05209)	-0.215	-0.292
PTPA_Q15257_202_IDYGTGHEAAFAAFLCCLCK (UniProt Q15257)	-0.094	0.556
PTPN23_Q9H3S7_1466_HGVPPPCKPLASASISQK (UniProt Q9H3S7)	-0.222	-0.866
PTBP3_O95758_68_IPCDVTEAEIISLGLPFGK (UniProt O95758)	-0.0285	-0.154
PUM1_Q14671_1007_GQVFALSTHPYGCR (UniProt Q14671)	0.0338	-0.0424
PTPN6_P29350_382_AYGPYSVTNCGEHDTTEYK (UniProt P29350)	0.00651	0.0547
PSMD3_O43242_210_CYYYHAR (UniProt O43242)	0.00961	0.0335
PTK2B_Q14289_61_CTVQTEIR (UniProt Q14289)	0.21	0.229
PSMB5_P28074_111_VIEINPYLLGTMAGGAADCSFWER (UniProt P28074)	0.235	0.464
